This passage reports binding results from article PMC9045647.

Protein sequences, listed by entry. Tags and fused reporters are not part of them.
UniProt P03069: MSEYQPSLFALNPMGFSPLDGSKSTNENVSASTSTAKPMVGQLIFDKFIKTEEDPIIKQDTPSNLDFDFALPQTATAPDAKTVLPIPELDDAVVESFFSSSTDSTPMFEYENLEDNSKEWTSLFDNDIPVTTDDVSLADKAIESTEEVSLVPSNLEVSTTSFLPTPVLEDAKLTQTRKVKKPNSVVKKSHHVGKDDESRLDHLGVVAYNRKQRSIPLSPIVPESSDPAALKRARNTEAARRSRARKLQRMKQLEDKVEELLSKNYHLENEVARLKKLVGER
UniProt P9WQ69: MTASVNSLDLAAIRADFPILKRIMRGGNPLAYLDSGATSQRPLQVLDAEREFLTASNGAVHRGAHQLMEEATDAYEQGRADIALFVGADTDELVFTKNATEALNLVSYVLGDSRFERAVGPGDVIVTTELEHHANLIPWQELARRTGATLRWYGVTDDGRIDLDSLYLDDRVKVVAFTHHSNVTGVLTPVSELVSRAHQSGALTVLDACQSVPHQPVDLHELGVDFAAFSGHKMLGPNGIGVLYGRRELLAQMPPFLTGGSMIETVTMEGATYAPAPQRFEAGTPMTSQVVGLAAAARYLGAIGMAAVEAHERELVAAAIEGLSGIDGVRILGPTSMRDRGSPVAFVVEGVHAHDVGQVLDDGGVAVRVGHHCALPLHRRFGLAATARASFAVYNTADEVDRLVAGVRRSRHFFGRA
UniProt O53166: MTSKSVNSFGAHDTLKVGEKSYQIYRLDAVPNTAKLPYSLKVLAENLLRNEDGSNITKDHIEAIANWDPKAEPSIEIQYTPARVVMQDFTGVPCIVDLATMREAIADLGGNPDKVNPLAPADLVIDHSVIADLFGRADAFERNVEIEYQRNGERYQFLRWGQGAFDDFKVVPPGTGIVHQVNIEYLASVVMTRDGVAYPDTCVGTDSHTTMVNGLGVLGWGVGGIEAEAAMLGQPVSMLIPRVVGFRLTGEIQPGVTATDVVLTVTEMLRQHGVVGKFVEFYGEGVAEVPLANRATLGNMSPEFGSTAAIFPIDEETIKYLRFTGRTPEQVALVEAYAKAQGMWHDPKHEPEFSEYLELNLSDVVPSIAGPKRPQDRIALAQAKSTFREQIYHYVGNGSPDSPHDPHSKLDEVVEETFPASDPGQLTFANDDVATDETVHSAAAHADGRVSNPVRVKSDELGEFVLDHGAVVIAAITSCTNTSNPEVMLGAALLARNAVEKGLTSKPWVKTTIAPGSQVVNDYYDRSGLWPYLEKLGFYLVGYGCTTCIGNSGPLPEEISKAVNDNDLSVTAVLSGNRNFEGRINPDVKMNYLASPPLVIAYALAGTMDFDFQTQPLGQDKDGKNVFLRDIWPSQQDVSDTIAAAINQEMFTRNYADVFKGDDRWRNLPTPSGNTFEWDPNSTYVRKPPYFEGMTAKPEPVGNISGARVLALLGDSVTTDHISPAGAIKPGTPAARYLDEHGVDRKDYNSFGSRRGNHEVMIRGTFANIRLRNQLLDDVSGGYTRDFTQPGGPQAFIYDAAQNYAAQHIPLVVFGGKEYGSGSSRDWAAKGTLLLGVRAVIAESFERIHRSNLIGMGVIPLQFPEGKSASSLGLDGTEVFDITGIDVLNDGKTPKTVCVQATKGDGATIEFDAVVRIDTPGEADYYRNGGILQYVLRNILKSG

Holding throughout (experiment): split reporter
Assay [1] addresses yeast GCN4 fused to an mDHFR fragment for M-PFC (yeast) (UniProt P03069).
Assay [2] concerns the target T1, Mtb SufT (Rv1466), wild type, fused to an mDHFR fragment for M-PFC (Mycobacterium tuberculosis) (UniProt O53157).
T1 sequence: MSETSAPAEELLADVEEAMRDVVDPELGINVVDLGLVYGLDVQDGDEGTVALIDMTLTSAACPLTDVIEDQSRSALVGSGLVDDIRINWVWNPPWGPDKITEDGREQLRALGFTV

Assay [3] addresses Mtb SufS (Rv1464) fused to mDHFR fragment F[1,2] (Mycobacterium tuberculosis) (UniProt P9WQ69).
The target of assay [4] is T2, Mtb SufR (Rv1460) fused to mDHFR fragment F[1,2] (Mycobacterium tuberculosis) (UniProt O53151).
T2 sequence: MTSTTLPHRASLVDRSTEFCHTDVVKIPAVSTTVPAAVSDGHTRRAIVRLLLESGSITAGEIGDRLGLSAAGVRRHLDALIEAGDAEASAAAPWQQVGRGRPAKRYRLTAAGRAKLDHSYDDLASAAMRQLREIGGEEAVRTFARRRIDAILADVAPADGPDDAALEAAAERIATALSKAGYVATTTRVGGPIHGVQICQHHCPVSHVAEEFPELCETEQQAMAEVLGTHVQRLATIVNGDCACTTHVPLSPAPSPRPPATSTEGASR

Assay [5] concerns the target Mtb aconitase (Acn) fused to mDHFR fragment F[1,2] (Mycobacterium tuberculosis) (UniProt O53166).

No constants are given. Whether binding was seen depends on the method and setting. Binding seen in cells or lysates may run through a third protein. Some results given as binding are weak or reduced against the parent protein; the word gives no strength. Where a sequence is shown, tags or fusion partners need not be part of it.

B1: Mtb SufT (Rv1466), wild type, fused to an mDHFR fragment for M-PFC (protein, UniProt O53157 1-115)
chain: T1 sequence
With B1, the binding result in assay [1] is recorded as “no binding”; in assay [2], “binds”; in assay [3], “binds”; in assay [4], “binds”; in assay [5], “binds”.
